Test results taken from the M2OR odorant receptor database.
This is a selection; strong and weak results do not stand in their true shares. The calls were merged from several studies; some rest on single wells. The list shows a part of the results.

The chains behind the UniProt entries cited, without tags or fusion partners. Where a name states a change or a piece, a line headed by the entry shows the natural chain unless it says otherwise.
UniProt Q9H340: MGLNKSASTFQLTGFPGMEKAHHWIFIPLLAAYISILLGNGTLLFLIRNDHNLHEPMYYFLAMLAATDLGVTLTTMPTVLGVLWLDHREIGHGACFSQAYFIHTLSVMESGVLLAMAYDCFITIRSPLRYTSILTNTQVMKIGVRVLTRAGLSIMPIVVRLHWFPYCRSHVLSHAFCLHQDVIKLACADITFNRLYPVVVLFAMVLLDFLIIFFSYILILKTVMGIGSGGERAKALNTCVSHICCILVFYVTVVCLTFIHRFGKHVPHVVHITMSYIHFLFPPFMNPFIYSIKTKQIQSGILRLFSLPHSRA

Legend:
Conditions in all cases: stereoisomer not certain
OR51D1 (Homo sapiens) = target: T1, OR51D1 (Homo sapiens) (UniProt Q8NGF3)
T1 sequence (whole entry): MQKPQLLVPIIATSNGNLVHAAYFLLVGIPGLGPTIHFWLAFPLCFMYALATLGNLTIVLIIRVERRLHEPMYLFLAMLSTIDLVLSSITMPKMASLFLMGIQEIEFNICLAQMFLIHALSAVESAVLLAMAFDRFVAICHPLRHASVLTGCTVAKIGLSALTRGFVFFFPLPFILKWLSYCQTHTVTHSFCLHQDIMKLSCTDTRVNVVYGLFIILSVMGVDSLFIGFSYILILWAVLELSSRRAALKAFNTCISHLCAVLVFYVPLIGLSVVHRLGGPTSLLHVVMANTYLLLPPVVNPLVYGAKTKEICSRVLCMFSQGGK
Method in brief: (§1)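 Transient luciferase assays in mammalian cell lines were common, though methods varied by source. The values come from published papers and their supplementary material, with extra details from the original authors when needed. Responsive refers to a measured signal the original authors judged statistically different from baseline, and non-responsive (inactive) to the remainder.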

OR51E1 (Homo sapiens) [1] = target: T2, OR51E1 (Homo sapiens) (UniProt Q8TCB6)
T2 sequence (whole entry): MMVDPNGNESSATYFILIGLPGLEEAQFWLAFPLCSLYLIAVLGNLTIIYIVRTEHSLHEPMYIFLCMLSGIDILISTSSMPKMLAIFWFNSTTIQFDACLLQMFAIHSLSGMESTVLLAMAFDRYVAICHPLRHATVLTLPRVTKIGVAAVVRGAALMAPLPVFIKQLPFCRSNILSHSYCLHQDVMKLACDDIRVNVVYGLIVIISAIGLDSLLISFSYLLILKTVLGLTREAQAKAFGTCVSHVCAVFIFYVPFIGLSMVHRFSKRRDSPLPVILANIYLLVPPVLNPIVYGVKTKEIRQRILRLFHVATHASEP
Method in brief: as §1

OR51E2 (Homo sapiens) = target: T3, OR51E2 (Homo sapiens) (UniProt Q9H255)
T3 sequence (whole entry): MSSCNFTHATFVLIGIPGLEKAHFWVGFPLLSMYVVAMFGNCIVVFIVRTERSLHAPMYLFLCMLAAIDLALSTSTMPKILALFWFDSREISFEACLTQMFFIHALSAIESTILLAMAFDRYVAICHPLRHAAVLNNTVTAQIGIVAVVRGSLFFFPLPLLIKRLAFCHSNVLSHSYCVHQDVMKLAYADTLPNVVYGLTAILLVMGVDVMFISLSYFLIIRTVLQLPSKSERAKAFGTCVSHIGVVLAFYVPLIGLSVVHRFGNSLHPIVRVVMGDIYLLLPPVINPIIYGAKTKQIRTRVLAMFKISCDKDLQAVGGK
Method in brief: as §1

OR51G1 (Homo sapiens) = target: T4, OR51G1 (Homo sapiens) (UniProt Q8NGK1)
T4 sequence (whole entry): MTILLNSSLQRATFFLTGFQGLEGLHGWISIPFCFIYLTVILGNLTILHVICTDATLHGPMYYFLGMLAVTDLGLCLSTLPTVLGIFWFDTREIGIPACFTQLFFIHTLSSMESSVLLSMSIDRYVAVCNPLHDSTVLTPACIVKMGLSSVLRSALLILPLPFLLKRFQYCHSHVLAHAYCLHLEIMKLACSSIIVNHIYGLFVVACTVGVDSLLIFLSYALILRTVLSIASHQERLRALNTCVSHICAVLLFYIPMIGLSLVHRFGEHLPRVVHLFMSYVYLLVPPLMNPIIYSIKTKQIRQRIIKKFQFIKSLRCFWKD
Method in brief: as §1

OR51H1 (Homo sapiens) = target: T5, OR51H1 (Homo sapiens) (UniProt Q8NH63)
T5 sequence (whole entry): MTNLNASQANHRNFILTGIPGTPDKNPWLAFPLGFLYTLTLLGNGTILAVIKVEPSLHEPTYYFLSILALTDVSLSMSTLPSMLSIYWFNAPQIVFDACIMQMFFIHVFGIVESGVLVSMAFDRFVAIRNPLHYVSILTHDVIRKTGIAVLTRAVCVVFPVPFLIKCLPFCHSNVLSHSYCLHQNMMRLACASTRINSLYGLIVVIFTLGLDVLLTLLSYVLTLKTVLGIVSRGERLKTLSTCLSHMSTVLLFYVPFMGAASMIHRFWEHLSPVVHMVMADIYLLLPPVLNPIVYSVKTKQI
Method in brief: as §1

OR51B6 (Homo sapiens) = OR51B6 (Homo sapiens) (UniProt Q9H340)
Method in brief: as §1

OR51E1 (Homo sapiens) [2] = target: T6, OR51E1 (Homo sapiens) (UniProt Q8TCB6); remark: listed apart in the source
T6 sequence (whole entry): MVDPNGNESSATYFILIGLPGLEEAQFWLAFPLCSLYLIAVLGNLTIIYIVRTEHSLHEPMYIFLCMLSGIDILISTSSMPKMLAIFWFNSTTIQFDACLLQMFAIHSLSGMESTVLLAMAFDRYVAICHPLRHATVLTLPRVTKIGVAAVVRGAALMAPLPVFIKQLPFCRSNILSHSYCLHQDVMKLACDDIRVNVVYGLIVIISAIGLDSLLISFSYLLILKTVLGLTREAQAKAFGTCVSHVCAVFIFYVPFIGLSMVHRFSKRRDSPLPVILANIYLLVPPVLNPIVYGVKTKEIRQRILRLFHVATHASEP
Method in brief: as §1

OR51F1 (Homo sapiens) = target: T7, OR51F1 (Homo sapiens) (UniProt A6NGY5)
T7 sequence (whole entry): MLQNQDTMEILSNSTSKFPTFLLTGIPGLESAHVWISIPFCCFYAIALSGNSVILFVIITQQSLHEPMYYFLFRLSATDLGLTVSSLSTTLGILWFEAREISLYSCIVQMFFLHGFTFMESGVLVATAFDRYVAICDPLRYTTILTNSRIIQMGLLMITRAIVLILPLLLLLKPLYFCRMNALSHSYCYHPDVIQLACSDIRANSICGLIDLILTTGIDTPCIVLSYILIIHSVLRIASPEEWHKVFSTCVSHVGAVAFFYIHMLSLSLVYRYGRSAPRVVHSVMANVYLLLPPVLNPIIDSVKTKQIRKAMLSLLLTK
Method in brief: as §1

OR51F2 (Homo sapiens) = target: T8, OR51F2 (Homo sapiens) (UniProt Q8NH61)
T8 sequence (whole entry): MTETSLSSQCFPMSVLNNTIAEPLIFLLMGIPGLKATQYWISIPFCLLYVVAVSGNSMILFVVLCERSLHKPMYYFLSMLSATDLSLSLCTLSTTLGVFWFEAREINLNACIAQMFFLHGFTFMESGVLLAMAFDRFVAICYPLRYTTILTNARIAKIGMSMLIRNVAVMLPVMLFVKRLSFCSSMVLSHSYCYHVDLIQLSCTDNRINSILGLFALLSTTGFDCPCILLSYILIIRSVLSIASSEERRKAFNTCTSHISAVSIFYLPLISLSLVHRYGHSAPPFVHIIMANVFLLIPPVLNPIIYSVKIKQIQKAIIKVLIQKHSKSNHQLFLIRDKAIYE
Method in brief: as §1

OR51G2 (Homo sapiens) = target: T9, OR51G2 (Homo sapiens) (UniProt Q8NGK0)
T9 sequence (whole entry): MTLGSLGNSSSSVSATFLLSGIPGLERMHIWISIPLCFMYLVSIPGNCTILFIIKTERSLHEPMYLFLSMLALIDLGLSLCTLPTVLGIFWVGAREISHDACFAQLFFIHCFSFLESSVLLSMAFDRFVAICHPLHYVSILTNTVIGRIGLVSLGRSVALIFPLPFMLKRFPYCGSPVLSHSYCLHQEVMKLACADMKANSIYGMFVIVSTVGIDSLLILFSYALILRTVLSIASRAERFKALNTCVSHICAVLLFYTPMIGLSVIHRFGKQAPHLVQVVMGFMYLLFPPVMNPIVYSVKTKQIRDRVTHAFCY
Method in brief: as §1
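Note: active if original authors judged signal statistically different from baseline.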

SMILES | odorant receptor agonist call (OR51D1 (Homo sapiens)) | odorant receptor agonist call (OR51E1 (Homo sapiens) [1]) | odorant receptor agonist call (OR51E2 (Homo sapiens)) | odorant receptor agonist call (OR51G1 (Homo sapiens)) | odorant receptor agonist call (OR51H1 (Homo sapiens)) | odorant receptor agonist call (OR51B6 (Homo sapiens)) | odorant receptor agonist call (OR51E1 (Homo sapiens) [2]) | odorant receptor agonist call (OR51F1 (Homo sapiens)) | odorant receptor agonist call (OR51F2 (Homo sapiens)) | odorant receptor agonist call (OR51G2 (Homo sapiens))
CC(=O)OCC=C(C)CCC=C(C)C | inactive | active | inactive | inactive | inactive |  |  |  |  | 
CC1=NC(C)SC1C (stereo not drawn) | inactive | inactive | active | inactive | inactive |  |  |  |  | 
CC1=CCC(C(C)(C)O)CC1 (stereo not drawn) | inactive | inactive | inactive | inactive | inactive |  |  |  |  | 
CCCC(=O)O | active | active | inactive | inactive | inactive | inactive | inactive | inactive | inactive | inactive
CCCCCOC(C)=O | inactive | inactive | inactive | inactive | inactive |  |  |  |  | 
COc1cc(C=O)ccc1O | inactive | inactive | inactive | inactive | inactive |  |  |  |  | 
CC1COCc2cc3c(cc21)C(C)(C)C(C)C3(C)C (stereo not drawn) | inactive | inactive | inactive | inactive | inactive |  |  |  |  | 
CCCCCCCC=O | inactive | inactive | inactive | inactive | inactive |  | inactive |  |  | 
CCCCCCCCCC=O | inactive | active | inactive | inactive | inactive |  | inactive |  |  | 
CCCCCC(C)=O | inactive | inactive | inactive | inactive | inactive |  | inactive |  |  | 
CC(=O)c1ccccc1 | inactive | active | inactive | inactive | inactive |  | inactive |  |  | 
O=C1CCCCCCCCCCCCCCO1 | inactive | inactive | inactive | inactive | inactive |  |  |  |  | 
CC(C)C(=O)O | inactive | inactive | active | inactive | inactive |  |  |  |  | 
CCCCCCOC(=O)CCC | inactive | inactive | inactive | inactive | inactive |  |  |  |  | 
CC12CCC(C1)C(C)(C)C2=O (stereo not drawn) | inactive | inactive | inactive | inactive | inactive |  | inactive |  |  | 
CC(C)CCC(=O)O | inactive | active | inactive | inactive | inactive |  | active |  |  | 
CCCCCCCCCCC=O | inactive | inactive | inactive | inactive | inactive |  |  |  |  | 
CC(=O)C(C)=O | inactive | inactive | inactive | inactive | inactive | inactive | inactive | inactive | inactive | inactive
CCCCCC(=O)O | inactive | inactive | inactive | inactive | inactive |  | inactive |  |  | 
c1cnccn1 | inactive | inactive | inactive | inactive | inactive |  |  |  |  | 
O=C1CCCCC1 | inactive | inactive | inactive | inactive | inactive |  | inactive |  |  | 
CC(=O)OC1CC2CCC1(C)C2(C)C (stereo not drawn) | inactive | inactive | inactive | inactive | inactive |  |  |  |  | 
CC(=O)OC(C)(C)C1CC=C(C)CC1 (stereo not drawn) | inactive | inactive | inactive | inactive | inactive |  |  |  |  | 

Of the compounds above, 4 have a COOH group:
SMILES | odorant receptor agonist call (OR51D1 (Homo sapiens)) | odorant receptor agonist call (OR51E1 (Homo sapiens) [1]) | odorant receptor agonist call (OR51E2 (Homo sapiens)) | odorant receptor agonist call (OR51G1 (Homo sapiens)) | odorant receptor agonist call (OR51H1 (Homo sapiens)) | odorant receptor agonist call (OR51B6 (Homo sapiens)) | odorant receptor agonist call (OR51E1 (Homo sapiens) [2]) | odorant receptor agonist call (OR51F1 (Homo sapiens)) | odorant receptor agonist call (OR51F2 (Homo sapiens)) | odorant receptor agonist call (OR51G2 (Homo sapiens))
CCCC(=O)O | active | active | inactive | inactive | inactive | inactive | inactive | inactive | inactive | inactive
CC(C)C(=O)O | inactive | inactive | active | inactive | inactive |  |  |  |  | 
CC(C)CCC(=O)O | inactive | active | inactive | inactive | inactive |  | active |  |  | 
CCCCCC(=O)O | inactive | inactive | inactive | inactive | inactive |  | inactive |  |  | 
